Experimental findings from doi:10.1101/491779 are described below.

Sequences of proteins named here, by UniProt entry; tags and fusion partners are left off. A change or cut given only in a name is not applied to a line headed by its entry.
UniProt Q13263, whole entry: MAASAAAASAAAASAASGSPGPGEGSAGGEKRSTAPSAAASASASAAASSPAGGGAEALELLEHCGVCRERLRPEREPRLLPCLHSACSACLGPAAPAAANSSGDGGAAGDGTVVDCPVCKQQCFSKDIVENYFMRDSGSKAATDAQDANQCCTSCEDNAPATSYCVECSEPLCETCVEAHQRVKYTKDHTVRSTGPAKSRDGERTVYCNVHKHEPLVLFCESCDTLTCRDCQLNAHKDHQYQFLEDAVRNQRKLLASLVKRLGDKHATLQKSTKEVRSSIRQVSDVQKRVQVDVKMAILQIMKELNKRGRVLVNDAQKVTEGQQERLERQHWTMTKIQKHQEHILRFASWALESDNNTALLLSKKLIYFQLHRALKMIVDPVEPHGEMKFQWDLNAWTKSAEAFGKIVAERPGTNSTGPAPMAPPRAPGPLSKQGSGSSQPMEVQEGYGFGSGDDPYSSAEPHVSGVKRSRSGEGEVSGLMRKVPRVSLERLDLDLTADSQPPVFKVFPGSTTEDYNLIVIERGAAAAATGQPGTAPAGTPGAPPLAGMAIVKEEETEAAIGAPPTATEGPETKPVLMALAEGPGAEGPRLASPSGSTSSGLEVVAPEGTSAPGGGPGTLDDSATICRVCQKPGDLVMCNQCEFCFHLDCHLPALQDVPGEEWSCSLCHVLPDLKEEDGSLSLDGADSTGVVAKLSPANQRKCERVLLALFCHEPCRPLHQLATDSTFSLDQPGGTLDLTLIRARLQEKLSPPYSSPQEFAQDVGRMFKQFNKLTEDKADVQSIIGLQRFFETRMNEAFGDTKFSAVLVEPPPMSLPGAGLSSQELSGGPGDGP
UniProt Q13185, whole entry: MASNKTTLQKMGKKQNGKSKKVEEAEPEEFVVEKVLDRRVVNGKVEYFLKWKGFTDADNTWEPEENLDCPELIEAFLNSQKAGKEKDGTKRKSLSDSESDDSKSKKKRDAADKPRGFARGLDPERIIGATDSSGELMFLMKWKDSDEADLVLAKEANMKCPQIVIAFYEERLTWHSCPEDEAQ

Common to all, as to assay: co-IP
Assay [1] addresses T1, FLAG-C11orf46 R236H (human) (UniProt Q8N8R7).
T1 sequence: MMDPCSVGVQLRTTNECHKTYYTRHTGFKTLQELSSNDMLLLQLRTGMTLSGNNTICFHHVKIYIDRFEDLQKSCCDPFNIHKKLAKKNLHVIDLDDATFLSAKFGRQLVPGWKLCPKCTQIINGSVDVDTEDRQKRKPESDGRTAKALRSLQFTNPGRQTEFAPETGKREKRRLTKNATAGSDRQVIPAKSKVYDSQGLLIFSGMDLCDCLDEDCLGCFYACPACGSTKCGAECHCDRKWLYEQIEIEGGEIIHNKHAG

Assay [2] deals with T2, FLAG-HA-tagged full length C11orf46 (human) (UniProt Q8N8R7).
T2 sequence: T1 sequence with H236R

Assay [3] addresses T3, C11orf46 (endogenous, HeLa) (human (endogenous in HeLa)) (UniProt Q8N8R7).
T3 sequence: T1 sequence with H236R

Residue numbers refer to the chain shown, from its start. These are yes or no findings as the source states them, for the method shown. In cells and extracts the contact can be indirect. Some results given as binding are weak or reduced against the parent protein; the word gives no strength. For some assays here: Sequences can lack the tags named with a protein.

Turning to “KAP1 (endogenous, HEK293) (from UniProt Q13263 1-835)”, the binding result in assay [1] and in assay [2] was “binds” in each case. With “heterochromatin-associated protein 1 gamma (HP1γ) (endogenous, HeLa) (from UniProt Q13185 1-183)”, the binding entry in assay [3] was “binds”.

B1: MCAF1 (endogenous, HEK293) (protein, UniProt Q6VMQ6 1-1270)
chain: MDSLEEPQKKVFKARKTMRVSDRQQLEAVYKVKEELLKTDVKLLNGNHENGDLDPTSPLENMDYIKDKEEVNGIEEICFDPEGSKAEWKETPCILSVNVKNKQDDDLNCEPLSPHNITPEPVSKLPAEPVSGDPAPGDLDAGDPASGVLASGDSTSGDPTSSEPSSSDAASGDATSGDAPSGDVSPGDATSGDATADDLSSGDPTSSDPIPGEPVPVEPISGDCAADDIASSEITSVDLASGAPASTDPASDDLASGDLSSSELASDDLATGELASDELTSESTFDRTFEPKSVPVCEPVPEIDNIEPSSNKDDDFLEKNGADEKLEQIQSKDSLDEKNKADNNIDANEETLETDDTTICSDRPPENEKKVEEDIITELALGEDAISSSMEIDQGEKNEDETSADLVETINENVIEDNKSENILENTDSMETDEIIPILEKLAPSEDELTCFSKTSLLPIDETNPDLEEKMESSFGSPSKQESSESLPKEAFLVLSDEEDISGEKDESEVISQNETCSPAEVESNEKDNKPEEEEQVIHEDDERPSEKNEFSRRKRSKSEDMDNVQSKRRRYMEEEYEAEFQVKITAKGDINQKLQKVIQWLLEEKLCALQCAVFDKTLAELKTRVEKIECNKRHKTVLTELQAKIARLTKRFEAAKEDLKKRHEHPPNPPVSPGKTVNDVNSNNNMSYRNAGTVRQMLESKRNVSESAPPSFQTPVNTVSSTNLVTPPAVVSSQPKLQTPVTSGSLTATSVLPAPNTATVVATTQVPSGNPQPTISLQPLPVILHVPVAVSSQPQLLQSHPGTLVTNQPSGNVEFISVQSPPTVSGLTKNPVSLPSLPNPTKPNNVPSVPSPSIQRNPTASAAPLGTTLAVQAVPTAHSIVQATRTSLPTVGPSGLYSPSTNRGPIQMKIPISAFSTSSAAEQNSNTTPRIENQTNKTIDASVSKKAADSTSQCGKATGSDSSGVIDLTMDDEESGASQDPKKLNHTPVSTMSSSQPVSRPLQPIQPAPPLQPSGVPTSGPSQTTIHLLPTAPTTVNVTHRPVTQVTTRLPVPRAPANHQVVYTTLPAPPAQAPLRGTVMQAPAVRQVNPQNSVTVRVPQTTTYVVNNGLTLGSTGPQLTVHHRPPQVHTEPPRPVHPAPLPEAPQPQRLPPEAASTSLPQKPHLKLARVQSQNGIVLSWSVLEVDRSCATVDSYHLYAYHEEPSATVPSQWKKIGEVKALPLPMACTLTQFVSGSKYYFAVRAKDIYGRFGPFCDPQSTDVISSTQSS
Regarding B1, the binding result in assay [2] was “binds”.

B2: MCAF1 (endogenous, HeLa) (protein, UniProt Q6VMQ6 1-1270)
chain: B1 chain
Consider B2, for which the binding result in assay [3] is listed as “binds”.
